At least one structure is not confirmed: it was looked up by name or label, or the drawing left a doubt.
Tested on: RA-treated SH-SY5Y cells
Assay: Neurite outgrowth of RA-treated SH-SY5Y cells
Type: cell-based, human
Settings: RA treatment for 5 days, no BDNF
Description: FIG. 1. BDNF promotes neurite outgrowth of RA-treated SH-SY5Y, and induces phosphorylation of NgR1. (A) SH-SY5Y cells were incubated with indicated reagents. Cell images were taken with phase contrast microscopy. (B) Number of cells extending neurite-like structures of more than 40 μm and total cell number were counted from images taken in (A). More than 300 cells were examined in each sample. The proportion of cells extending neurite-like structures of more than 40 μm was indicated as a percentage of total cell number. An average of three experiments is shown. Error bars indicate S. E. between experiments. Data were analysed with student's t test. (C) Whole cell extracts were prepared from RA-treated SH-SY5Y cells after incubation with or without BDNF for 24 hours, and were analysed by SDS-PAGE. Immunoblotting was performed with the indicated antibodies. […] Whole cell extracts prepared from these cells were analysed by SDS-PAGE. […]
FIG. 2. […] (B) Number of cells extending neurite-like structures of more than 40 μm and total cell number were counted from images taken in (A). […] Over-expressed NgR1-Myc was detected with anti-Myc antibody. […]
After fixation, beta-tubulin III was detected with anti-beta-tubulin III antibody. […] Then, NgR1-Myc was immuno-precipitated and analysed with SDS-PAGE. […] NgR1-Myc was detected with anti-Myc antibody. […]

With `CC1=C(/C=C/C(C)=C/C=C/C(C)=C/C(=O)O)C(C)(C)CCC1` [RA, Retinoic acid] the “morphological changes of SH-SY5Y cells” value was “limited morphological changes”.

Source: patent US9089565B2, “Compositions and methods for causing neurite outgrowth” (MEDICAL RESEARCH COUNCIL, priority 2009, dated 2015)
